# Laboratory results as given in the supplement of paper PMC6411743.
# By UniProt entry, the sequences of proteins in these tests, tags left out. Where a name states a change or a piece, a line headed by the entry shows the natural chain unless it says otherwise.
# UniProt P40855: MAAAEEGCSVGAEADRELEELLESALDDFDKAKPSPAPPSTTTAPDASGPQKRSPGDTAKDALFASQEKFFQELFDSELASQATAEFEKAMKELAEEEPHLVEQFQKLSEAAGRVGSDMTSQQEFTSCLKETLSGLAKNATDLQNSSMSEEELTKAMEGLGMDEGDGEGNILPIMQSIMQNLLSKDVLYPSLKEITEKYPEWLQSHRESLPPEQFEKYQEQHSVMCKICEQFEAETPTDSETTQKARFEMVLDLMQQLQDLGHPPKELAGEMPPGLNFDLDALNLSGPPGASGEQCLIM
# UniProt P49796: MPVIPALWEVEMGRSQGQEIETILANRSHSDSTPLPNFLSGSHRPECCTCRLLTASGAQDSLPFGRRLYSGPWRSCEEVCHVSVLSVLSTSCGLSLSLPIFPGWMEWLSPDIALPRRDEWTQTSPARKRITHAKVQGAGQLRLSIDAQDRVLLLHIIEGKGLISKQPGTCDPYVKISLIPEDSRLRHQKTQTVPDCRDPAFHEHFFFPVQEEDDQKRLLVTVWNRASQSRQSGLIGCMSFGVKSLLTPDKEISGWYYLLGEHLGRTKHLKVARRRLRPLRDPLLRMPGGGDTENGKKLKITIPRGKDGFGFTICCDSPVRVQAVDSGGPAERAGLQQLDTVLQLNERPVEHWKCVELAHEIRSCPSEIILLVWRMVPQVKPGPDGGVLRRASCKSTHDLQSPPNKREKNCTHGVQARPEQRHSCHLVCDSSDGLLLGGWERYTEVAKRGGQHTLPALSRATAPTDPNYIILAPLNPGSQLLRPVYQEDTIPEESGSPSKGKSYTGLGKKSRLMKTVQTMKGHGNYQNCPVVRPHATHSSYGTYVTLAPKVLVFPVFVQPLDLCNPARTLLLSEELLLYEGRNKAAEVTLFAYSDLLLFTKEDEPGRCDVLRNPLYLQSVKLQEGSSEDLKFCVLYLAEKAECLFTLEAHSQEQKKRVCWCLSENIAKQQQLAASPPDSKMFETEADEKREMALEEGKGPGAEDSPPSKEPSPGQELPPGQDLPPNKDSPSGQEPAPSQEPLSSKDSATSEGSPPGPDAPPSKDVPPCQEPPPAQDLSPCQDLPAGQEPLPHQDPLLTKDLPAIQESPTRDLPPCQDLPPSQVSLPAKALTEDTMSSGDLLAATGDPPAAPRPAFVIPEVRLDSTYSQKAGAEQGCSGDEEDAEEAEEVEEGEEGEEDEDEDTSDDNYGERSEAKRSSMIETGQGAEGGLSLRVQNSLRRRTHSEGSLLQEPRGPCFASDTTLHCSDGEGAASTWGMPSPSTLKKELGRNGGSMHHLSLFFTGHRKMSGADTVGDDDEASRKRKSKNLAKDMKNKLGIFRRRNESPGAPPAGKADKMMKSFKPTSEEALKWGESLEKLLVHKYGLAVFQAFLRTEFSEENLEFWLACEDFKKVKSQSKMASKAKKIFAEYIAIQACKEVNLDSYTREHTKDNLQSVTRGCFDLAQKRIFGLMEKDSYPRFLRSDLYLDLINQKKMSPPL
# UniProt P49321, whole entry: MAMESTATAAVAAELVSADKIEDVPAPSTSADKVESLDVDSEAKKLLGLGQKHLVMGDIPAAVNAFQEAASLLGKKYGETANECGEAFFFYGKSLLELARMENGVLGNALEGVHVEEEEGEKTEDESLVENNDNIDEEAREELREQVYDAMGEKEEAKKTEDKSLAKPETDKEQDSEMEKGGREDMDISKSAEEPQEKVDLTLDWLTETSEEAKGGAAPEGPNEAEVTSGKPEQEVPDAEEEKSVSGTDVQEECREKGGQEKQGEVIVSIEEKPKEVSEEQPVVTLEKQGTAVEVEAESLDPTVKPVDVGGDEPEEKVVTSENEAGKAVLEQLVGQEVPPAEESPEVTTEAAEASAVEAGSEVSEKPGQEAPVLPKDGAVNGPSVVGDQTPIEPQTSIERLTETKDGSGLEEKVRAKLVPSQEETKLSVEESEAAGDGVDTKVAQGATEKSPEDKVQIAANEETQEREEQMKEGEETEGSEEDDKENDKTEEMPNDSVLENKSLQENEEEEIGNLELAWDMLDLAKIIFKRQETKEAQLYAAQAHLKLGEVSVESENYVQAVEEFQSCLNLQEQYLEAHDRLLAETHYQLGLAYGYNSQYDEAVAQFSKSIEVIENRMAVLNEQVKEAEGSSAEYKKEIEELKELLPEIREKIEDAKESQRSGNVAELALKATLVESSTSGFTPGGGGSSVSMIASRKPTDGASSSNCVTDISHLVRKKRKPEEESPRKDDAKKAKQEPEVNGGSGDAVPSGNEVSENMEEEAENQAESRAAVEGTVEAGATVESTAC
# UniProt P50238: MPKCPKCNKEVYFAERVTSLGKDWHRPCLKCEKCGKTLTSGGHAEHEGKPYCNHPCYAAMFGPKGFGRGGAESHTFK
# UniProt P55072, whole entry, looked up: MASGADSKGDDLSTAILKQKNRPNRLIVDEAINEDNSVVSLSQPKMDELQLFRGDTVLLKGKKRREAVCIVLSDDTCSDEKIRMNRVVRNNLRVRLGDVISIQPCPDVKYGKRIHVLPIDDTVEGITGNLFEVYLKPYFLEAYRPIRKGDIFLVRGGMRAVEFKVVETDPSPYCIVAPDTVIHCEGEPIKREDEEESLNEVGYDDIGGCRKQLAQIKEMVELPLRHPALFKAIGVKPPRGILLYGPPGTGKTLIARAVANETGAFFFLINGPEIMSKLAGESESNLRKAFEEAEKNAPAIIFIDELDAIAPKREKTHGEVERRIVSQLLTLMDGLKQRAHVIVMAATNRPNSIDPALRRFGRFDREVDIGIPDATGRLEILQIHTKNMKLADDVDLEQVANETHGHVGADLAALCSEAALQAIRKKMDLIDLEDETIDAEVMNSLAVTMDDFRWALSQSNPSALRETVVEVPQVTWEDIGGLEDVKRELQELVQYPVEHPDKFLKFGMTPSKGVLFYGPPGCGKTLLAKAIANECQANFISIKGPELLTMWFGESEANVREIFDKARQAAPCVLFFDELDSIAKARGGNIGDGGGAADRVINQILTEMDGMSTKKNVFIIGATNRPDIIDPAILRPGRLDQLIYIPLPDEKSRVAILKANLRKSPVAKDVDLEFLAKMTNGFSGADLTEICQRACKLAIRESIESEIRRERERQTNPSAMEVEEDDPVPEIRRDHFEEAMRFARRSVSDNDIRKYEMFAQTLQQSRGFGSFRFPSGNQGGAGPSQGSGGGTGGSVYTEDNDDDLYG
# UniProt P49458: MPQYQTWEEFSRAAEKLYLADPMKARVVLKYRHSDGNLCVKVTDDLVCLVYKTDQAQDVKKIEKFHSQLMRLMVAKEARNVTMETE
# UniProt P54136: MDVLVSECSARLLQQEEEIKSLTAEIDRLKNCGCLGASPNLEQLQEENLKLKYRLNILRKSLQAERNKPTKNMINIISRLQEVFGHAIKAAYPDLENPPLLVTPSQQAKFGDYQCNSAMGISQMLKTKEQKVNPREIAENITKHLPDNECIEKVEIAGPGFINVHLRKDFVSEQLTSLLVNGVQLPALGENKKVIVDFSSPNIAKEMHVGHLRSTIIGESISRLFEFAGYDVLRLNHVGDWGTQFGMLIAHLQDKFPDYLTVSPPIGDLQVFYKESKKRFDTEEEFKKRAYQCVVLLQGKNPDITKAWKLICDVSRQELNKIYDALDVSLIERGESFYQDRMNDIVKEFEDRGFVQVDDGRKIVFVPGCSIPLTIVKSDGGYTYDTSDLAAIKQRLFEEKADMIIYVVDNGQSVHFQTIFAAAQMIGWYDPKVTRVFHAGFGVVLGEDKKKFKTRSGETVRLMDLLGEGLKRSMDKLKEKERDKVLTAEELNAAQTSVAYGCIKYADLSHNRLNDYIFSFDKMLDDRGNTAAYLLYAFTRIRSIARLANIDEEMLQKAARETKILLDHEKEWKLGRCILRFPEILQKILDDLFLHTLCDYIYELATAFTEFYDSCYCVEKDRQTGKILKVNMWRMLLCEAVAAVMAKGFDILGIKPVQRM
# UniProt P48506: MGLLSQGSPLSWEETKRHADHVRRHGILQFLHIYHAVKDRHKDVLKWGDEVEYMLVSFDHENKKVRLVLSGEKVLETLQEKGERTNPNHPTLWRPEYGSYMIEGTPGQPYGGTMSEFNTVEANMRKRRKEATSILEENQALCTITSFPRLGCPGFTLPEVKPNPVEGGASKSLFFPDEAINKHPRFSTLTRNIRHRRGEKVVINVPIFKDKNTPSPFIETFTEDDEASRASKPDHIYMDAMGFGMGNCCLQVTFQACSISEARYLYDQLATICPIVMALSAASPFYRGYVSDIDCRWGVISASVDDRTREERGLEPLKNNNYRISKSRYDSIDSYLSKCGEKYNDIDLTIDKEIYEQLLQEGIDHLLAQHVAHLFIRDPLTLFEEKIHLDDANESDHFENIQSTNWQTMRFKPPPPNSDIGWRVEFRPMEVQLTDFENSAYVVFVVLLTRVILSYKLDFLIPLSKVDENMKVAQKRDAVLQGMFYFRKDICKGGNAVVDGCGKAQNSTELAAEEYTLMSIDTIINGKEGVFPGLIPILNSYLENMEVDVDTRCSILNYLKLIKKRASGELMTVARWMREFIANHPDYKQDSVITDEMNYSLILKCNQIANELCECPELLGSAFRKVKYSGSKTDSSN
# UniProt P46940, whole entry: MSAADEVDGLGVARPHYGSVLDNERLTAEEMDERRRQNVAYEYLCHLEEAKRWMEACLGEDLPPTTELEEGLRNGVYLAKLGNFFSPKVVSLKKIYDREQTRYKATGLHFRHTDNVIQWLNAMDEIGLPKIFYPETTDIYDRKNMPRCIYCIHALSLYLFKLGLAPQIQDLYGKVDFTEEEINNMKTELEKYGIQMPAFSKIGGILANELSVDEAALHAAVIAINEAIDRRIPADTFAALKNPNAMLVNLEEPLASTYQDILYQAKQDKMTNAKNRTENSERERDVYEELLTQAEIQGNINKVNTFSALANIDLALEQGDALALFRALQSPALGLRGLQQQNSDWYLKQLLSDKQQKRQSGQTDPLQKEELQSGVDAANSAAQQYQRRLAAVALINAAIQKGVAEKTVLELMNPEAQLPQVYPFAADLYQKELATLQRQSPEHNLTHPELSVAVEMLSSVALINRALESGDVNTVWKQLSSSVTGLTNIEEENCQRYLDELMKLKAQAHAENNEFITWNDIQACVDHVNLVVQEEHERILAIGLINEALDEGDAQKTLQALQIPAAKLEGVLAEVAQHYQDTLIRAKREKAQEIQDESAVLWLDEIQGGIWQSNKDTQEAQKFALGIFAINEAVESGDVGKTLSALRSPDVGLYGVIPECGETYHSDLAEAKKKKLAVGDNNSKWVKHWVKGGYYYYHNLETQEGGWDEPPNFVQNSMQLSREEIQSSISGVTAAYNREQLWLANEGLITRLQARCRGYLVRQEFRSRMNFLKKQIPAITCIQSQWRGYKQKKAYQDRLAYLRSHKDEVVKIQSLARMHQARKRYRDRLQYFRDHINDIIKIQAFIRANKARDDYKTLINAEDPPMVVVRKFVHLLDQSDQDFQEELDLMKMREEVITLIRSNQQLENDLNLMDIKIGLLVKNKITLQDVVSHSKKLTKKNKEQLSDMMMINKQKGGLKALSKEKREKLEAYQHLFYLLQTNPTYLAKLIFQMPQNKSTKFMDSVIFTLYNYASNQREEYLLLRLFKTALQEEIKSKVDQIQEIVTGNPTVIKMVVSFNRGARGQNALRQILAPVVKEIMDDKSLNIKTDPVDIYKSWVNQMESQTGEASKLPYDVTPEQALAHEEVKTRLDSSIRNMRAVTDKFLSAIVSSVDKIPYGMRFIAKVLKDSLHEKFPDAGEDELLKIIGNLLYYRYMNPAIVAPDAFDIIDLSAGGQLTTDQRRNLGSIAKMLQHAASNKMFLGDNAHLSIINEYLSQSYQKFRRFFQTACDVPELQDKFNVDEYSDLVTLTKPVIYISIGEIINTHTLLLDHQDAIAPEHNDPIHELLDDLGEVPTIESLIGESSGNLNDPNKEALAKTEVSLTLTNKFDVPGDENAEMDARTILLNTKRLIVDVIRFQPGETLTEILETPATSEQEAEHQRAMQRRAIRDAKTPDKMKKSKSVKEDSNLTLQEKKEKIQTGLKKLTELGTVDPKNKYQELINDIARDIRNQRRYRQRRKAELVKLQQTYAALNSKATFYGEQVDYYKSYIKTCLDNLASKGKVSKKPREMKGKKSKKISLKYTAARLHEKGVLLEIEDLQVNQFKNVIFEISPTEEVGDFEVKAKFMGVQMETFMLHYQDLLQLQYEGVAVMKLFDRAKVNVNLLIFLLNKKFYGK
# UniProt P54725: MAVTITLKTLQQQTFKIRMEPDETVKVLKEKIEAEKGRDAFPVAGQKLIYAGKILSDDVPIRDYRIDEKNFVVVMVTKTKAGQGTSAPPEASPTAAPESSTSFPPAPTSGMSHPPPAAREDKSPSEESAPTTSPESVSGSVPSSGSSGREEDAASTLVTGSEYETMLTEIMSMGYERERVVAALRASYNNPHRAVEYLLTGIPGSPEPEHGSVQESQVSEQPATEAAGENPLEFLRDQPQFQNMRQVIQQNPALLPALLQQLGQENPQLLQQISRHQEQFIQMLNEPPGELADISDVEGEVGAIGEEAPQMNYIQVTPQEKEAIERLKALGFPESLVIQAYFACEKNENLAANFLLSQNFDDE
# ± gives the standard deviation of the averaged measurements. The list shows a part of the results, in another mix than the full data. Most entries show no effect beyond the scatter of the controls.
# Compound: Nc1ncnc2c1ncn2[C@@H]1O[C@H](COP(=O)(O)OP(=O)(O)NP(=O)(O)O)[C@@H](O)[C@H]1O [adenylyl imidodiphosphate]
# Assay: NP40-soluble protein abundance relative to vehicle (solubility fold change) (ratio); higher = more soluble protein in presence of AMP-PNP
# How it was run: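 Values are fold changes against the detergent-processed vehicle, based on vsn-normalised intensities. Jurkat crude lysate was treated at eight concentrations from 0.1 to 10 mM (10 min at room temperature, then 3 min at 37 °C), solubilised with 0.8% NP40 and benzonase, ultracentrifuged and analysed by TMT-labelled LC-MS/MS over three independent experiments.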
Target,NP40-soluble protein abundance (concentration: 0.1mM),NP40-soluble protein abundance (concentration: 0.5mM)
ARHGDIA (UniProt P52565),0.96 ± 0.016,0.9502 ± 0.004
UniProt P48449 and related entries,1.03 ± 0.036,0.976 ± 0.084
IARS (UniProt P41252),1.07 ± 0.027,1.01 ± 0.1
KIF11 (UniProt P52732),0.983 ± 0.013,0.99 ± 0.028
UniProt P46736 and related entries,1.01 ± 0.05,0.993 ± 0.051
UniProt P40855 and related entries,1.02 ± 0.018,1.08 ± 0.063
UniProt P49589 and related entries,0.996 ± 0.024,1.003 ± 0.0025
RPIA (UniProt P49247),1.01 ± 0.04,1.02 ± 0.013
TUFM (UniProt P49411),1.03 ± 0.061,0.979 ± 0.068
TPMT (UniProt P51580),0.999 ± 0.029,0.993 ± 0.069
UniProt P49796 and related entries,0.9877 ± 0.0052,0.989 ± 0.013
CSK (UniProt P41240),0.986 ± 0.037,0.984 ± 0.024
UniProt P41227 and related entries,0.986 ± 0.018,1.04 ± 0.064
CTSC (UniProt P53634),1.01 ± 0.031,1.01 ± 0.062
UniProt P48634 and related entries,0.989 ± 0.011,1 ± 0.031
UniProt P51795-2,0.996 ± 0.062,0.949 ± 0.0036
UniProt P52948 and related entries,1.01 ± 0.048,1.02 ± 0.033
UniProt P49321 and related entries,0.937 ± 0.026,0.971 ± 0.04
TRAPPC10 (UniProt P48553),0.977 ± 0.02,0.979 ± 0.03
UniProt P43307 and related entries,1.02 ± 0.034,0.969 ± 0.083
CBX5 (UniProt P45973),0.966 ± 0.031,1.03 ± 0.076
CPT1A (UniProt P50416),0.967 ± 0.03,0.96 ± 0.081
UniProt P51149,0.988 ± 0.022,0.984 ± 0.065
RAB28 (UniProt P51157),1 ± 0.013,1 ± 0.024

Target,NP40-soluble protein abundance (concentration: 0.1mM),NP40-soluble protein abundance (concentration: 0.5mM)
GSS (UniProt P48637),1.02 ± 0.015,0.982 ± 0.028
PLK1 (UniProt P53350),1.038 ± 0.0026,1.04 ± 0.04
SUB1 (UniProt P53999),0.956 ± 0.054,0.953 ± 0.14
MTIF2 (UniProt P46199),0.993 ± 0.018,1.01 ± 0.016
USP14 (UniProt P54578),1.02 ± 0.015,1.01 ± 0.028
UniProt P51798 and related entries,1.01 ± 0.023,0.981 ± 0.031
UniProt P49754 and related entries,0.995 ± 0.062,0.936 ± 0.079
UniProt P49757 and related entries,1.02 ± 0.019,1.01 ± 0.048
CRIP1 (UniProt P50238),0.984 ± 0.03,1.03 ± 0.061
MAGEA9 (UniProt P43362),0.981 ± 0.014,1.022 ± 0.0077
PRIM2 (UniProt P49643),1.02 ± 0.018,1.022 ± 0.0098
ADCY7 (UniProt P51828),0.983 ± 0.024,0.972 ± 0.015
UniProt P50995 and related entries,1 ± 0.057,1.01 ± 0.047
NCAPD3 (UniProt P42695),0.96 ± 0.018,0.9835 ± 0.0069
NEK4 (UniProt P51957),1.04 ± 0.064,0.975 ± 0.082
NUP153 (UniProt P49790),0.972 ± 0.019,1.01 ± 0.049
UniProt P49368 and related entries,1.01 ± 0.024,0.985 ± 0.034
HSPA2 (UniProt P54652),1.01 ± 0.022,1.01 ± 0.022
RPL5 (UniProt P46777),0.999 ± 0.039,1.02 ± 0.016
UniProt P42684 and related entries,0.9879 ± 0.0059,0.991 ± 0.013
GNPDA1 (UniProt P46926),1.02 ± 0.038,1.03 ± 0.061
ARHGDIB (UniProt P52566),0.9881 ± 0.0089,1.02 ± 0.037
KPNA2 (UniProt P52292),1 ± 0.039,0.987 ± 0.029
PIK3CA (UniProt P42336),1.02 ± 0.025,1.01 ± 0.066

Target,NP40-soluble protein abundance (concentration: 0.1mM),NP40-soluble protein abundance (concentration: 0.5mM)
MTOR (UniProt P42345),0.997 ± 0.052,0.988 ± 0.062
UniProt P50548 and related entries,0.984 ± 0.018,0.97495 ± 0.00022
SMARCA2 (UniProt P51531),0.999 ± 0.014,0.999 ± 0.032
UniProt P53004 and related entries,1.01 ± 0.048,0.987 ± 0.076
UniProt P46013 and related entries,0.981 ± 0.011,1.03 ± 0.036
EIF5 (UniProt P55010),0.965 ± 0.018,1.03 ± 0.039
UniProt P55072,0.992 ± 0.02,0.997 ± 0.011
RPL21 (UniProt P46778),1.09 ± 0.048,1.03 ± 0.035
UniProt P52630 and related entries,1.01 ± 0.033,0.998 ± 0.035
UniProt P48960 and related entries,1.03 ± 0.067,1.04 ± 0.071
STT3A (UniProt P46977),1.018 ± 0.0057,1.02 ± 0.052
KNTC1 (UniProt P50748),1 ± 0.04,0.97 ± 0.08
CCT5 (UniProt P48643),1.042 ± 0.0096,1.01 ± 0.051
CRKL (UniProt P46109),0.993 ± 0.011,1 ± 0.043
SRP9 (UniProt P49458),1.04 ± 0.11,1.09 ± 0.18
UniProt P55060 and related entries,1.02 ± 0.051,1.01 ± 0.02
TXLNA (UniProt P40222),0.979 ± 0.085,1.04 ± 0.14
UniProt P52824 and related entries,0.967 ± 0.018,0.974 ± 0.012
UniProt P54136 and related entries,1.05 ± 0.021,1.01 ± 0.068
RBM25 (UniProt P49756),1 ± 0.039,1.03 ± 0.075
MLH1 (UniProt P40692),1.04 ± 0.054,1.08 ± 0.048
GNAQ (UniProt P50148),0.998 ± 0.014,1.01 ± 0.037
CETN2 (UniProt P41208),0.988 ± 0.043,1.04 ± 0.097
PRCP (UniProt P42785),0.988 ± 0.038,1 ± 0.04

Target,NP40-soluble protein abundance (concentration: 0.1mM),NP40-soluble protein abundance (concentration: 0.5mM)
GCLC (UniProt P48506),1.01 ± 0.011,0.969 ± 0.059
HTT (UniProt P42858),1.03 ± 0.021,0.979 ± 0.029
IQGAP1 (UniProt P46940),0.99 ± 0.019,0.999 ± 0.03
GTF2A1 (UniProt P52655),0.988 ± 0.018,1.01 ± 0.043
UniProt P53677 and related entries,1.02 ± 0.024,1.03 ± 0.038
SEPHS1 (UniProt P49903),0.984 ± 0.0094,0.979 ± 0.021
UniProt P48059-5,1.009 ± 0.0091,0.987 ± 0.047
UniProt P54725 and related entries,1.01 ± 0.011,1.04 ± 0.046
UniProt P53621 and related entries,1.02 ± 0.027,0.997 ± 0.077
UniProt P47756-2,0.994 ± 0.02,1.02 ± 0.051
UniProt P49116-2|P49116,0.96 ± 0.028,0.964 ± 0.0082
UniProt P49840,1.04 ± 0.046,1.05 ± 0.045
UniProt P54819 and related entries,0.959 ± 0.021,1 ± 0.043
UniProt P52306 and related entries,0.998 ± 0.018,1.01 ± 0.048
PREP (UniProt P48147),1.03 ± 0.032,0.994 ± 0.074
CDKN1B (UniProt P46527),0.995 ± 0.016,1.02 ± 0.027
RABIF (UniProt P47224),0.985 ± 0.018,0.988 ± 0.011
UniProt P45974 and related entries,0.99379 ± 0.00049,0.9867 ± 0.0091
MDH2 (UniProt P40926),0.98 ± 0.035,0.992 ± 0.012
FASN (UniProt P49327),1.01 ± 0.026,0.984 ± 0.071
STAT5B (UniProt P51692),0.999 ± 0.016,0.997 ± 0.021
NCKAP1L (UniProt P55160),1.02 ± 0.049,1.01 ± 0.049
SLC16A1 (UniProt P53985),0.987 ± 0.029,0.989 ± 0.049
UniProt P49588 and related entries,0.989 ± 0.013,1.01 ± 0.012

# Exported with tabs: part of the list above
Target	NP40-soluble protein abundance (concentration: 0.1mM)	NP40-soluble protein abundance (concentration: 0.5mM)
STT3A (UniProt P46977)	1.018 ± 0.0057	1.02 ± 0.052
KNTC1 (UniProt P50748)	1 ± 0.04	0.97 ± 0.08
CCT5 (UniProt P48643)	1.042 ± 0.0096	1.01 ± 0.051
CRKL (UniProt P46109)	0.993 ± 0.011	1 ± 0.043
SRP9 (UniProt P49458)	1.04 ± 0.11	1.09 ± 0.18
UniProt P55060 and related entries	1.02 ± 0.051	1.01 ± 0.02
TXLNA (UniProt P40222)	0.979 ± 0.085	1.04 ± 0.14
UniProt P52824 and related entries	0.967 ± 0.018	0.974 ± 0.012
UniProt P54136 and related entries	1.05 ± 0.021	1.01 ± 0.068
RBM25 (UniProt P49756)	1 ± 0.039	1.03 ± 0.075
MLH1 (UniProt P40692)	1.04 ± 0.054	1.08 ± 0.048
GNAQ (UniProt P50148)	0.998 ± 0.014	1.01 ± 0.037
CETN2 (UniProt P41208)	0.988 ± 0.043	1.04 ± 0.097
PRCP (UniProt P42785)	0.988 ± 0.038	1 ± 0.04
GCLC (UniProt P48506)	1.01 ± 0.011	0.969 ± 0.059
HTT (UniProt P42858)	1.03 ± 0.021	0.979 ± 0.029
IQGAP1 (UniProt P46940)	0.99 ± 0.019	0.999 ± 0.03
GTF2A1 (UniProt P52655)	0.988 ± 0.018	1.01 ± 0.043
UniProt P53677 and related entries	1.02 ± 0.024	1.03 ± 0.038
SEPHS1 (UniProt P49903)	0.984 ± 0.0094	0.979 ± 0.021
UniProt P48059-5	1.009 ± 0.0091	0.987 ± 0.047
UniProt P54725 and related entries	1.01 ± 0.011	1.04 ± 0.046
UniProt P53621 and related entries	1.02 ± 0.027	0.997 ± 0.077
UniProt P47756-2	0.994 ± 0.02	1.02 ± 0.051
UniProt P49116-2|P49116	0.96 ± 0.028	0.964 ± 0.0082
UniProt P49840	1.04 ± 0.046	1.05 ± 0.045
UniProt P54819 and related entries	0.959 ± 0.021	1 ± 0.043
UniProt P52306 and related entries	0.998 ± 0.018	1.01 ± 0.048
PREP (UniProt P48147)	1.03 ± 0.032	0.994 ± 0.074
CDKN1B (UniProt P46527)	0.995 ± 0.016	1.02 ± 0.027
RABIF (UniProt P47224)	0.985 ± 0.018	0.988 ± 0.011
UniProt P45974 and related entries	0.99379 ± 0.00049	0.9867 ± 0.0091
MDH2 (UniProt P40926)	0.98 ± 0.035	0.992 ± 0.012
FASN (UniProt P49327)	1.01 ± 0.026	0.984 ± 0.071
STAT5B (UniProt P51692)	0.999 ± 0.016	0.997 ± 0.021
NCKAP1L (UniProt P55160)	1.02 ± 0.049	1.01 ± 0.049
SLC16A1 (UniProt P53985)	0.987 ± 0.029	0.989 ± 0.049

# Continuation:

Target,NP40-soluble protein abundance (concentration: 0.1mM),NP40-soluble protein abundance (concentration: 0.5mM)
RFX3 (UniProt P48380),0.99 ± 0.014,0.9885 ± 0.005
GCLM (UniProt P48507),1.01 ± 0.018,1.03 ± 0.017
UniProt P51948 and related entries,0.991 ± 0.018,1.03 ± 0.04
UniProt P50750 and related entries,1.03 ± 0.035,1.04 ± 0.081
PHKA2 (UniProt P46019),1.01 ± 0.049,0.982 ± 0.051
UniProt P43155 and related entries,0.989 ± 0.033,0.951 ± 0.073
KPNA1 (UniProt P52294),1.03 ± 0.05,0.99 ± 0.043
PRKX (UniProt P51817),0.953 ± 0.074,0.9658 ± 0.0083
PIP4K2A (UniProt P48426),0.974 ± 0.015,0.969 ± 0.052
UniProt P49407-2|P49407,0.999 ± 0.041,1.05 ± 0.042
UniProt P55210 and related entries,0.981 ± 0.043,0.971 ± 0.04
UniProt P53365 and related entries,1.02 ± 0.034,0.9904 ± 0.0062
MCM2 (UniProt P49736),0.99 ± 0.043,0.975 ± 0.049
RFC5 (UniProt P40937),1.02 ± 0.022,1.03 ± 0.058
USP8 (UniProt P40818),0.998 ± 0.019,0.996 ± 0.043
MFAP1 (UniProt P55081),1.03 ± 0.018,1.03 ± 0.04
UniProt P51797 and related entries,0.991 ± 0.038,0.991 ± 0.041
DHPS (UniProt P49366),1 ± 0.017,1.01 ± 0.027
UniProt P51608-2|P51608 and related entries,0.992 ± 0.023,1.02 ± 0.021
RAB27A (UniProt P51159),0.984 ± 0.058,1.02 ± 0.026
UniProt P49959,0.984 ± 0.031,0.976 ± 0.044
RGS19 (UniProt P49795),1 ± 0.024,1.01 ± 0.022
UniProt P53367 and related entries,1.01 ± 0.049,1.03 ± 0.032
UniProt P40337 and related entries,0.99 ± 0.032,1 ± 0.044
